According to paper PMC11997425, “MADS-domain transcription factor AGAMOUS LIKE-9 participates in the gibberellin pathway to promote bud dormancy release of tree peony”:
Results are given in words; binding and its absence hold for the method and conditions named. In cells and extracts the contact can be indirect. A yes stands for co-enrichment or nearness to the bait. Other partners may have been found.

Amino acid sequences for entries named in this document (tags omitted). A change or cut given only in a name is not applied to a line headed by its entry.
UniProt V9I0Q3: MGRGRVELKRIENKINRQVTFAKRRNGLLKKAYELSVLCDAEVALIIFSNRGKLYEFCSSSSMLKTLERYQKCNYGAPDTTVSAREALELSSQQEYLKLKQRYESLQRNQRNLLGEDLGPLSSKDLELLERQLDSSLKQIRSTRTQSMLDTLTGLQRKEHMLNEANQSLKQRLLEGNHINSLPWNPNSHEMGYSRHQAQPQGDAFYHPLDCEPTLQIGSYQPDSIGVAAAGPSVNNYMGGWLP
UniProt A0A346FU24: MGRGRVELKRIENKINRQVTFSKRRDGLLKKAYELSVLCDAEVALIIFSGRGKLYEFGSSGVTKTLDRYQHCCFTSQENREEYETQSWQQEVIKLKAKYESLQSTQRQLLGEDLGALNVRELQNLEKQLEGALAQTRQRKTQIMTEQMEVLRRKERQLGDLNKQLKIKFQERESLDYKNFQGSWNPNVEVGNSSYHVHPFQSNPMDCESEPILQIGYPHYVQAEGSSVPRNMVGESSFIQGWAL

Target: GST-PsAGL9 fusion protein (Paeonia suffruticosa (tree peony)) (UniProt V9I0Q3)
Experiment: affinity purification with mass spectrometry; purified GST fusion protein immobilised on Glutathione Magnetic Agarose Beads; incubated with total proteins of chilled tree peony buds for 1 h at 4°C; beads washed three times with PBS; LC-MS/MS; GST as control; only the target purified

## PsAGL9 (AGAMOUS-LIKE 9), endogenous (from UniProt V9I0Q3)
  binding: binds

## PsAGL6, endogenous (from UniProt A0A346FU24)
  binding: binds
